Experimental data: PubChem BioAssay AID1259308 (NCATS, 2017)
The whole screen tested about 59,000 reagents; shown is an unselected part. About 1,510 of all reagents (2.6%) were called active. 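Calls use total luciferase alone and ignore viability, so some active siRNAs may act by altering cell number.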 A number with no mark means an inactive call. Further read-outs or replicates are left out here. No sequences are given here.

- Purpose: 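Candidate targets for better recombinant protein yield in mammalian cells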 (primary screen)
- Cells: human HEK293 embryonic kidney cells stably expressing firefly luciferase (HEK-CMV-Luc2-Hygro)
- Reagents: single siRNA against human genes, 0.8 pmol siRNA per well
- Timing: 72 h
- Detection: 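Luciferase light (ONE-Glo) measured on one replicate plate set and viability (CellTiter-Glo) on the other, scaled to a negative control siRNA, with robust z-scores and luciferase per cell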
- Reading the numbers: total luciferase, z-score and total luciferase, % of control: higher = more reporter protein produced; luciferase per cell, z-score: higher = more reporter output per viable cell
- Rule for the call: 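Active when the median/MAD z-score for overall luciferase is greater than 3; a gene was taken forward for validation with new siRNAs if at least two of its three siRNAs passed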
- Meaning of the calls: active = raised luciferase; inactive = no rise

The opening 3 entries, to show the layout:
Target gene | PubChem SID | total luciferase, z-score | total luciferase, % of control | luciferase per cell, z-score
ZFP36L1 (GeneID 677) | SID160728910 | -2.81 | 26.1 | -1.94
ZFP36L1 (GeneID 677) | SID160728922 | -1.46 | 52.8 | -1.78
ZFP36L1 (GeneID 677) | SID160728933 | -0.84 | 65.2 | -1.23

Results, from the first entry:
Target gene | PubChem SID | total luciferase, z-score | total luciferase, % of control | luciferase per cell, z-score
ZFP36L1 (GeneID 677) | SID160728910 | -2.81 | 26.1 | -1.94
ZFP36L1 (GeneID 677) | SID160728922 | -1.46 | 52.8 | -1.78
ZFP36L1 (GeneID 677) | SID160728933 | -0.84 | 65.2 | -1.23
COPS9 (GeneID 150678) | SID160758997 | 0.447 | 90.8 | 1.26
COPS9 (GeneID 150678) | SID160758998 | -2.48 | 32.5 | -2.19
COPS9 (GeneID 150678) | SID160758999 | 3.67 (active) | 155 | 2.13
RBM39 (GeneID 9584) | SID160722560 | 5.48 (active) | 191 | 4.11
RBM39 (GeneID 9584) | SID160722561 | 2.55 | 133 | 1.48
RBM39 (GeneID 9584) | SID160722562 | 0.4 | 89.8 | -0.576
EMILIN2 (GeneID 84034) | SID160751624 | -1.24 | 57.3 | -0.0405
EMILIN2 (GeneID 84034) | SID160751625 | -1.99 | 42.2 | -1.93
EMILIN2 (GeneID 84034) | SID160751626 | -0.678 | 68.4 | -0.658
HOXD1 (GeneID 3231) | SID160775247 | 0.407 | 90 | 0.692
HOXD1 (GeneID 3231) | SID160775248 | -0.0883 | 80.1 | 0.439
HOXD1 (GeneID 3231) | SID160775249 | 0.164 | 85.1 | 0.0111
ZNF75A (GeneID 7627) | SID160719105 | 0.406 | 90 | -0.412
ZNF75A (GeneID 7627) | SID160719106 | -0.579 | 70.4 | -0.627
ZNF75A (GeneID 7627) | SID160719107 | -0.606 | 69.8 | -0.66
HCN3 (GeneID 57657) | SID160746509 | 0.217 | 86.2 | -0.464
HCN3 (GeneID 57657) | SID160746510 | -0.894 | 64.1 | -0.275
HCN3 (GeneID 57657) | SID160746511 | 1.52 | 112 | 1.27
HMGCL (GeneID 3155) | SID160775058 | 0.971 | 101 | 0.984
HMGCL (GeneID 3155) | SID160775059 | -0.232 | 77.3 | -0.452
HMGCL (GeneID 3155) | SID160775061 | -1.14 | 59.2 | -2.18
RPL13A (GeneID 23521) | SID160736458 | 2.17 | 125 | 1.74
RPL13A (GeneID 23521) | SID160736459 | -2.06 | 40.9 | -0.673
RPL13A (GeneID 23521) | SID160736460 | -1.2 | 58 | 0.0383
RSPO2 (GeneID 340419) | SID160764421 | 0.79 | 97.6 | 1.05
RSPO2 (GeneID 340419) | SID160764422 | -0.468 | 72.6 | -0.837
RSPO2 (GeneID 340419) | SID160764423 | -0.562 | 70.7 | -1.75
TFAP4 (GeneID 7023) | SID160717941 | -2.29 | 36.4 | -2.47
TFAP4 (GeneID 7023) | SID160717942 | -0.424 | 73.4 | -0.409
TFAP4 (GeneID 7023) | SID160717943 | -1.37 | 54.7 | -1.53
DDX23 (GeneID 9416) | SID160722162 | 0.186 | 85.6 | 0.624
DDX23 (GeneID 9416) | SID160722163 | -3.16 | 19.1 | -1.42
DDX23 (GeneID 9416) | SID160722164 | 3.36 (active) | 149 | 2.62
CAMP (GeneID 820) | SID160736188 | 1.86 | 119 | 1.49
CAMP (GeneID 820) | SID160736198 | -2.03 | 41.6 | -2.08
CAMP (GeneID 820) | SID160736208 | -2.89 | 24.4 | -3.08
PRPF31 (GeneID 26121) | SID160730917 | 0.186 | 85.6 | 0.428
PRPF31 (GeneID 26121) | SID160737654 | 1.26 | 107 | 2.49
PRPF31 (GeneID 26121) | SID160737655 | 1.01 | 102 | 1.55
STRAP (GeneID 11171) | SID160730111 | 0.464 | 91.1 | -0.0853
STRAP (GeneID 11171) | SID160730112 | 0.639 | 94.6 | -0.038
STRAP (GeneID 11171) | SID160730113 | 0.171 | 85.3 | -0.523
OR2T34 (GeneID 127068) | SID160756575 | -0.185 | 78.2 | 0.24
OR2T34 (GeneID 127068) | SID160756576 | -0.576 | 70.4 | 0.36
OR2T34 (GeneID 127068) | SID160756577 | -0.514 | 71.7 | -0.793
RHBDD2 (GeneID 57414) | SID160733668 | -1.27 | 56.6 | -1.23
RHBDD2 (GeneID 57414) | SID160745960 | -0.766 | 66.6 | -0.85
RHBDD2 (GeneID 57414) | SID160745961 | -0.127 | 79.4 | -0.199
WNT5B (GeneID 81029) | SID160731960 | 1.02 | 102 | 1.32
WNT5B (GeneID 81029) | SID160750662 | -0.242 | 77.1 | 0.238
WNT5B (GeneID 81029) | SID160750663 | -0.395 | 74 | -1.04
NTN1 (GeneID 9423) | SID160722178 | -1.17 | 58.6 | -1.38
NTN1 (GeneID 9423) | SID160722179 | -0.765 | 66.7 | -0.596
NTN1 (GeneID 9423) | SID160722180 | 0.533 | 92.5 | 1.27
